We go through two sequences from paper PMC5948213.

The exact form of at least one protein or probe is not confirmed. Where cells or extracts were used, other partners may take part. Tags and fusion partners may be left off the protein sequences shown.

The target in the data set is T1, DDB2 (DNA damage-binding protein 2), endogenous in HeLa nuclear extract (human (HeLa cells)) (UniProt Q92466).
T1 sequence (looked up, limits assumed): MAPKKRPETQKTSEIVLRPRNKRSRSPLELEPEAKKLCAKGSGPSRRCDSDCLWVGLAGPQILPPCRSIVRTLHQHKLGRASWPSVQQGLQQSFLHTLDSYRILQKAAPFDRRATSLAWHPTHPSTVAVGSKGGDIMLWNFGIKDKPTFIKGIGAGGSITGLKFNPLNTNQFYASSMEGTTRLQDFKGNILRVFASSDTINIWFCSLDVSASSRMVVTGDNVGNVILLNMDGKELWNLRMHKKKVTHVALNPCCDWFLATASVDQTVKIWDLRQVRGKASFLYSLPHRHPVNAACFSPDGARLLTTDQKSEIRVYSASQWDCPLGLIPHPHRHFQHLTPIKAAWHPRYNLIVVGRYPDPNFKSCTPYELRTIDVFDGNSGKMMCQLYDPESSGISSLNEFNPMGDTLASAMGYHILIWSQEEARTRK
Nature of the data set: EMSA with anti-DDB2 antibody. To be noted: 8 ug HeLa nuclear extract, 2 ug anti-DDB2 reduced the shifted band, 20 uL reaction per Li-Cor instructions (binding buffer not stated), nuclear extract lysis buffer 50 mM Tris-HCl pH 7.4, 150 mM NaCl, 1 mM EDTA, 1% Triton X-100, protein in an extract, label: IRDye700 5' on both strands. In general terms: A gel shift assay detects complexes by their altered migration in electrophoresis.

In the case of “AAATTGCTGAGCCAGTCACCTGTGTTCCAG (double strand) [BS1 probe (ALDH1A1 promoter, P1 region)]”, the binding result is “binds”.

Turning to “GCCAGCAGCCTGTACTCTGAGCC (double strand) [BS7 probe (ALDH1A1 promoter, P7 region)]”, the binding result is given as “binds”.
